Results of single-concentration screens

By UniProt entry, the sequences of proteins in these tests, tags left out. Residues count along the entry.
UniProt P9WFT3, whole entry: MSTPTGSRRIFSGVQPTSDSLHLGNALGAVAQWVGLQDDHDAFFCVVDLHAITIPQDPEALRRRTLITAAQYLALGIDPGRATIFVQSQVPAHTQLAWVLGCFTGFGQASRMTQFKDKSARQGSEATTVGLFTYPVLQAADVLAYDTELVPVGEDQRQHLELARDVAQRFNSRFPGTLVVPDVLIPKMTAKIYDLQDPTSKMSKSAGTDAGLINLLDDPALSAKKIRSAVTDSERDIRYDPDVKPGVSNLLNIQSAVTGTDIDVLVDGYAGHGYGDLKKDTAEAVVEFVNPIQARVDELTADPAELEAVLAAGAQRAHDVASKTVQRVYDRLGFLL
UniProt I6X8D2, whole entry: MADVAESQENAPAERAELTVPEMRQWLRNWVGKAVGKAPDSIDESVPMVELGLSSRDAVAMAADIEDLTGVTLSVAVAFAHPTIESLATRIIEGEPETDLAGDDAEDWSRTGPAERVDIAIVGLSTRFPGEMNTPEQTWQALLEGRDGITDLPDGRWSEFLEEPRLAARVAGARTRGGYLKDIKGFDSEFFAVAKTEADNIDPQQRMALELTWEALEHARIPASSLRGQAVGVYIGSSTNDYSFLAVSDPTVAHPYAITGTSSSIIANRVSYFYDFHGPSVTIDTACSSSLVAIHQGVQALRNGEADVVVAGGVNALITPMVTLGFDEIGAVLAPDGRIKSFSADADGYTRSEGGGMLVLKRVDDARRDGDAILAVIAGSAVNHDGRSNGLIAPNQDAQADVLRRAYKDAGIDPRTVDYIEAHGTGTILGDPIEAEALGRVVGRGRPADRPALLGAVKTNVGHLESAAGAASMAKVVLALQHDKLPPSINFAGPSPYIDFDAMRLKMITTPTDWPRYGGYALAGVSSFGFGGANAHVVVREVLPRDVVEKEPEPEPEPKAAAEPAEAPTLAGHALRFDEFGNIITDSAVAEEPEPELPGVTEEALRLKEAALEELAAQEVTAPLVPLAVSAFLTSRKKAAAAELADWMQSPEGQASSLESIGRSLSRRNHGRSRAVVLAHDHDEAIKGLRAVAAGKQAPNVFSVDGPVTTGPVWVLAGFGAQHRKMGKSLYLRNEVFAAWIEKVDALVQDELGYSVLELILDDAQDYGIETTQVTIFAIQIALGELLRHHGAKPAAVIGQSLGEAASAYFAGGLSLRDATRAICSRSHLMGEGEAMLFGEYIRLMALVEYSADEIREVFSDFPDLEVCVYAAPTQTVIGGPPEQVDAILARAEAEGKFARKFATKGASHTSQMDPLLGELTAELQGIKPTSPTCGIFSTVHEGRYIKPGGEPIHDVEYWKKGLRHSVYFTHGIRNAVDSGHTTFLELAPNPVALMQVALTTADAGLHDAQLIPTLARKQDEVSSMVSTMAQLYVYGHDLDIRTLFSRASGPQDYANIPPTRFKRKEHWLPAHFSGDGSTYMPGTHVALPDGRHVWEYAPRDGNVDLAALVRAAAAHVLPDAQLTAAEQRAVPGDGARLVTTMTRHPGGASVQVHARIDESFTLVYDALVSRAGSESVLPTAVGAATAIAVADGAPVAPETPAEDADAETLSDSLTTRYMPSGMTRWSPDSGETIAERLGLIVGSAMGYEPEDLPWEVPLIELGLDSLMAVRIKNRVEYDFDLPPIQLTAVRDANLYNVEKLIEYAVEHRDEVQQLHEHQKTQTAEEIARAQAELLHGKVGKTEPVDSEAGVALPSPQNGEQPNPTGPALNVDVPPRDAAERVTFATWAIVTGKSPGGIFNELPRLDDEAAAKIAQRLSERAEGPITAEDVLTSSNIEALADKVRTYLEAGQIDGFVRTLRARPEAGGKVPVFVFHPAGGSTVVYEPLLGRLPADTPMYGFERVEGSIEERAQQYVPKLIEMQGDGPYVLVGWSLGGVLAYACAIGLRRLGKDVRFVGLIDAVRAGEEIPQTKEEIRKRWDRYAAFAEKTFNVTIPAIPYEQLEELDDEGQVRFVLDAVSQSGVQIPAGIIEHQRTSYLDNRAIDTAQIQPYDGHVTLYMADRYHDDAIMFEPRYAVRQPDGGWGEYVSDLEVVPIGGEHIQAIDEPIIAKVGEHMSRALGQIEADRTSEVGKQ
UniProt A4I591, 1-473: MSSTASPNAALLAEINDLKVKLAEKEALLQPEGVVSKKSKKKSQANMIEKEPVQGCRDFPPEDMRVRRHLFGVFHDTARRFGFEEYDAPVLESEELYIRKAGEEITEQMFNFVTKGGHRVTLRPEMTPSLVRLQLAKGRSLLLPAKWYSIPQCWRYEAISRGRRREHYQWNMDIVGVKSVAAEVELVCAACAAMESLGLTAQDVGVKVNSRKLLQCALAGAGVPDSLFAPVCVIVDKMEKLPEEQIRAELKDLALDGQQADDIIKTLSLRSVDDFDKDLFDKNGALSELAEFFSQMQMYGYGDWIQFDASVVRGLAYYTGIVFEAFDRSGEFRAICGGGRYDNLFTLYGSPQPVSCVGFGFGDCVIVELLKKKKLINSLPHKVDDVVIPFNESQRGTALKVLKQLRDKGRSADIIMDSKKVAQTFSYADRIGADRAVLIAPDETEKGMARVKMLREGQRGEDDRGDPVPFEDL
UniProt Q8IDJ8, 1-583: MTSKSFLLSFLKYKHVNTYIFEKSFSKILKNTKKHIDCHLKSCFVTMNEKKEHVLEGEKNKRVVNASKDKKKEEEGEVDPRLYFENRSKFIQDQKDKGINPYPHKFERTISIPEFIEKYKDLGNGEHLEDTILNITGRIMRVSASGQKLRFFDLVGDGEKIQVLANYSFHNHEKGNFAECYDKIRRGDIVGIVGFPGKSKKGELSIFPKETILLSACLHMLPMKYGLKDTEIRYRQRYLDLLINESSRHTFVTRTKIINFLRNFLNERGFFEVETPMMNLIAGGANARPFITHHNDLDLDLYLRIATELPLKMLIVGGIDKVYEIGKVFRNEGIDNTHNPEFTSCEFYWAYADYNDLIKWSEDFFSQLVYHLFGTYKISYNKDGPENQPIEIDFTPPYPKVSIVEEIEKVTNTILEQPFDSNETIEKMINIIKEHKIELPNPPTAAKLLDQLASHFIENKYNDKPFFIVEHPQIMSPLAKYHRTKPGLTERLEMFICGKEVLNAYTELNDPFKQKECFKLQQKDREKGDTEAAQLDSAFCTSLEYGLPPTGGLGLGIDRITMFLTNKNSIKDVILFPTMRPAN

MtTrpRS: 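Tryptophan-tRNA ligase, Mycobacterium tuberculosis (UniProt P9WFT3). Enzyme assay of tryptophanyl-tRNA synthetase; the read-out is not stated. Compounds at 10 µM. Higher most likely means stronger inhibition; the record gives no direction and few retests gave an IC50. Of about 65,000 compounds tested this way, about 64 (0.098%) reached 50% or more in at least one test.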
Pks13 thioesterase: 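Polyketide synthase Pks13, Mycobacterium tuberculosis (UniProt I6X8D2). Enzyme assay of the thioesterase domain of polyketide synthase 13; the read-out is not stated. Compounds at 30 µM. The record gives no direction; the compounds picked for IC50 retests had high values, so higher reads as stronger inhibition. Size under these conditions: about 67,000 compounds, about 300 of them at 50% or above in at least one test.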
LiHisRS: 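Enzyme assay of histidyl-tRNA synthetase; the read-out is not stated. Target: Histidine-tRNA ligase, Leishmania infantum (UniProt A4I591). Tested at 30 µM. Direction is inferred from retests: higher values go with stronger inhibition. The assay is labelled LdHisRS but filed under L. infantum. Of about 69,000 compounds tested this way, about 410 (0.6%) reached 50% or more in at least one test.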
PfKRS1: 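Enzyme assay of the cytosolic lysyl-tRNA synthetase in 384-well plates, read by luminescence. Target: Lysine-tRNA ligase, Plasmodium falciparum 3D7 (UniProt Q8IDJ8). Concentration: 30 µM. Higher reads as stronger inhibition, judged from the few compounds that gave an IC50. Of about 69,000 compounds tested this way, about 49 (0.071%) reached 50% or more in at least one test.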

Results are given as percent effect.
How 0% and 100% were set is not recorded. Most values in the screen are low, and negative values occur.
Compounds were drawn at random from those tested, without regard to their results.

structure: COCc1cc(N(C)CCc2c(C)n[nH]c2C)ncn1
MtTrpRS: -2.853
Pks13 thioesterase: -8.24
LiHisRS: 9.677
PfKRS1: 0.2479

structure: CCS(=O)(=O)c1ncc(CN2CCCC2)n1CCc1ccccc1
MtTrpRS: -0.698
Pks13 thioesterase: -6.33
LiHisRS: 4.255
PfKRS1: -4.349

structure: NCc1cc(NCC(c2ccccn2)N2CCOCC2)ncn1 (stereo unspecified)
MtTrpRS: 0.805
Pks13 thioesterase: -5.98
LiHisRS: 12.82
PfKRS1: 4.421

structure: O=C1[C@H]2CN(C3CCOC3)C[C@H]2CN1c1ccccc1 (stereo partly specified)
MtTrpRS: -8.234
Pks13 thioesterase: -32.13
LiHisRS: 22
PfKRS1: 1.589

structure: COCC(=O)N1CCN(C(=O)c2scnc2C)CC1
MtTrpRS: -9.004
Pks13 thioesterase: -25.12
LiHisRS: 8.571
PfKRS1: 4.098

structure: Cc1ccc(CN(C)CC(=O)NC2(C)CCS(=O)(=O)C2)cc1 (stereo unspecified)
MtTrpRS: 2.28
Pks13 thioesterase: -8.746
LiHisRS: 22.97
PfKRS1: 8.673

structure: CC(C)NC(=O)N[C@H]1C[C@@H](Cc2cc(CN3CCOCC3)on2)C1(C)C
MtTrpRS: -3.996
Pks13 thioesterase: 6.622
LiHisRS: 11.11
PfKRS1: 3.564

structure: CN(C)C(=O)COC[C@H]1CC[C@@H]2[C@@H](CCN2Cc2ccco2)O1
MtTrpRS: 3.71
Pks13 thioesterase: -4.501
LiHisRS: 26.6
PfKRS1: 4.876

structure: COc1ccccc1CCC(=O)N1CCCC(OCc2cccnc2)C1 (stereo unspecified)
MtTrpRS: -0.3228
Pks13 thioesterase: -11.72
LiHisRS: 1.176
PfKRS1: 0.1436

structure: CC(C)(CN1CCOCC1)CN1CCC(Cc2cccc(CO)c2)C1 (stereo unspecified)
MtTrpRS: 1.098
Pks13 thioesterase: 1.768
LiHisRS: -18.03
PfKRS1: -2.338

structure: NCCc1nc(N(Cc2cncs2)C2CC2)c2ccccc2n1
MtTrpRS: -1.538
Pks13 thioesterase: -14.55
LiHisRS: 15.05
PfKRS1: -0.155

structure: CN1CC(C(=O)NCCOc2ccc3c(c2)OCO3)CC1=O (stereo unspecified)
MtTrpRS: 11.08
Pks13 thioesterase: -13.86
LiHisRS: 9.821
PfKRS1: 1.519

structure: N#Cc1cn(C2CC2)c(=O)n(Cc2ncc(-c3cccs3)o2)c1=O
MtTrpRS: -3.381
Pks13 thioesterase: -33.63
LiHisRS: 16.44
PfKRS1: 1.686

structure: COCCNc1nc2c(c(NCc3cnc(C)c(C)c3)n1)CCNCC2
MtTrpRS: -1.783
Pks13 thioesterase: -32.55
LiHisRS: 13.33
PfKRS1: -0.2264

structure: COc1ccc(C(=O)N2C[C@@H](C)[C@@](C)(O)C2)cc1N1CCOCC1
MtTrpRS: 2.602
Pks13 thioesterase: 1.724
LiHisRS: 2.128
PfKRS1: -2.041

structure: c1cnc(N2CCCC(c3cc4cccnc4[nH]3)C2)nc1 (stereo unspecified)
MtTrpRS: -6.902
Pks13 thioesterase: 2.459
LiHisRS: 7.586
PfKRS1: 2.294

structure: CC(=O)c1ccc(-n2c(C)cn(CCC(=O)NC(N)=O)c2=O)cc1
MtTrpRS: 5.794
Pks13 thioesterase: 12.92
LiHisRS: 21.05
PfKRS1: 1.107

structure: O=C(CO)N1CCCC(c2cc(C(F)(F)F)[nH]n2)C1 (stereo unspecified)
MtTrpRS: -3.329
Pks13 thioesterase: 0.2183
LiHisRS: 5.634
PfKRS1: 1.903

structure: CN(C)C(=O)c1ccccc1NCCCOc1cccc(C#N)c1
MtTrpRS: 8.098
Pks13 thioesterase: -44.51
LiHisRS: -1.493
PfKRS1: -5.588

structure: CCc1cnc(NCC2OCCc3ccccc32)nc1 (stereo unspecified)
MtTrpRS: 7.066
Pks13 thioesterase: 39.72
LiHisRS: 28.21
PfKRS1: -4.352

structure: N#Cc1cccc(CN2C[C@H](NC(=O)C3CC3)[C@H]3OCCC[C@H]32)c1
MtTrpRS: -2.653
Pks13 thioesterase: -5.597
LiHisRS: 0.9174
PfKRS1: -0.03647

structure: CC(C)(C)c1cc(=O)[nH]c(-c2ccccc2CN2CCC[C@@H](O)C2)n1
MtTrpRS: -2.415
Pks13 thioesterase: -23.88
LiHisRS: 15.38
PfKRS1: 2.112

structure: Cc1nc(C)c(C(=O)NCCNC(=O)Cc2cccc(F)c2)s1
MtTrpRS: 0.8746
Pks13 thioesterase: -4.49
LiHisRS: 18.46
PfKRS1: -3.264

3 of the entries, repeated:

structure	MtTrpRS	Pks13 thioesterase	LiHisRS	PfKRS1
CN(C)C(=O)COC[C@H]1CC[C@@H]2[C@@H](CCN2Cc2ccco2)O1	3.71	-4.501	26.6	4.876
COCCNc1nc2c(c(NCc3cnc(C)c(C)c3)n1)CCNCC2	-1.783	-32.55	13.33	-0.2264
COc1ccc(C(=O)N2C[C@@H](C)[C@@](C)(O)C2)cc1N1CCOCC1	2.602	1.724	2.128	-2.041

Data taken from ChEMBL document CHEMBL3988442, “University of Dundee, Small-Polar-MMV Screening Library” (2021).